The inconclusive results got no clear call from the source; some entries with a clear call stand among them for comparison. Where the call is inconclusive, the potency comes from a doubtful curve fit. The source made the active and inactive calls. Calls follow the shape of the dose curve; as a rule, active = well fitted curve in the direction sought with a large enough effect; inconclusive = small, poorly fitted or top-dose-only effect, or another doubt; inactive = no such curve, though single readings can be large; an effect the other way counts as inactive or inconclusive.
Biological target: RecQ-like DNA helicase BLM (Homo sapiens) (UniProt P54132)
Assay: qHTS for Inhibitors of WRN Helicase: BLM Helicase Counterscreen for WRN Inhibitors (AID 720503); also: nearly all actives have a fitted effect of over 60% in size;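 as to activity change, negative = inhibition: plate controls were DMSO vehicle for no effect and enzyme-free control wells for full effect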
Settings: Recombinant BLM helicase DNA unwinding, red fluorescence; activity change, negative = inhibition: at 57.1 µM (top of the series)
Summary of the method: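 BLM at 1 nM was preincubated with compound for 15 min at room temperature in 25 mM Tris-HCl pH 8.0, 50 mM NaCl, 2 mM MgCl2, 1 mM DTT and 0.01% Tween-20. Unwinding was started with 100 nM DNA and 2 mM ATP (final). Fluorescence (ex 525/em 598 nm) was read twice, 15 min apart, and normalized to enzyme-free and DMSO controls.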
Potency is read from the fitted curve at half-maximal effect.

By UniProt entry, the sequences of proteins in these tests, tags left out. Where a name states a change or a piece, a line headed by the entry shows the natural chain unless it says otherwise.
UniProt P54132: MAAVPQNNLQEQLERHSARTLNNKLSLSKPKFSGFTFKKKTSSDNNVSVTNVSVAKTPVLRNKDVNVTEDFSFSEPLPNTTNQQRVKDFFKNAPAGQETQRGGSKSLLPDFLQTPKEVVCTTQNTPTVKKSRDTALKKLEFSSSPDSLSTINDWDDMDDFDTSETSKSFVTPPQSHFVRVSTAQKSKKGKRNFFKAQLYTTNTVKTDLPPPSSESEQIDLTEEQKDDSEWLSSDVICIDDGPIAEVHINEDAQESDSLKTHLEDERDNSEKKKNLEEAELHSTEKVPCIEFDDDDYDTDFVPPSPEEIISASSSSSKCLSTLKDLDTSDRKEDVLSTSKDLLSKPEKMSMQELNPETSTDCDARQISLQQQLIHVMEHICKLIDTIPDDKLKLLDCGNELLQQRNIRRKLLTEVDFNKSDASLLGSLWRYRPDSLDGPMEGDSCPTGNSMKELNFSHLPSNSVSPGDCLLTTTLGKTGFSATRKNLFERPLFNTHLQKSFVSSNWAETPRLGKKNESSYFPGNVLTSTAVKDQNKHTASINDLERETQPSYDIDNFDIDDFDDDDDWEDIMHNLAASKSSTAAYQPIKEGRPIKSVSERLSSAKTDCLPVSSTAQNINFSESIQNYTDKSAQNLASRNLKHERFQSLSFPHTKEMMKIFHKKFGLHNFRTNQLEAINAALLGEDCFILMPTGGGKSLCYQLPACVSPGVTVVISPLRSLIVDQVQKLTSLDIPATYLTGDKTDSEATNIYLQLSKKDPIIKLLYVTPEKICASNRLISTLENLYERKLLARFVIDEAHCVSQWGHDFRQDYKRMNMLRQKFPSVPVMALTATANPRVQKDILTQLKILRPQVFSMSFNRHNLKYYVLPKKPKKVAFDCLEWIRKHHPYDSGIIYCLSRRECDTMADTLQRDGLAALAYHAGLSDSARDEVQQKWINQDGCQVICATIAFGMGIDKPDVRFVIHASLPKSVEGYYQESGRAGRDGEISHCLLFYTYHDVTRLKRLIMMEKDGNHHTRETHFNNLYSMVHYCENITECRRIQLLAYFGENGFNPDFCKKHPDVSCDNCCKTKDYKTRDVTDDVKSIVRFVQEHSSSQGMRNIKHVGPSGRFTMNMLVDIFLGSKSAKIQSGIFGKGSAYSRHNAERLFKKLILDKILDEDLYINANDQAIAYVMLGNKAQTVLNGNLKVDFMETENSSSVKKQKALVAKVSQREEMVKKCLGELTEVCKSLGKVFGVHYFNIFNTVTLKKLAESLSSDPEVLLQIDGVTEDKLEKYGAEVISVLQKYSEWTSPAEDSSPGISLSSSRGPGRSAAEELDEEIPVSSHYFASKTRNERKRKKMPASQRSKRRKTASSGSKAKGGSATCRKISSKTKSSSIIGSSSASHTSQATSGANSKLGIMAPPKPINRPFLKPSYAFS

Row | SMILES | activity change, negative = inhibition | Potency
1 | CCCOc1ccc(C(=O)CCN2CCN(C(=O)OCC)CC2)cc1 | inactive: -18% | 
2 | Cc1sc2c3ccsc3ccc2[n+]1C |  | inconclusive: 27.1 µM [inhibitor, partial curve]
3 | O=C1ON=C(c2ccc(Cl)cc2)/C1=C/c1ccc(O)cc1 |  | inconclusive: 27.1 µM [inhibitor, partial curve]
4 | CCN1/C(=C/c2ccc3cc(C)ccc3[n+]2CC)Sc2cc(C)c(C)cc21 |  | inconclusive: 42.9 µM [inhibitor, single point]
5 | CC1=NN(c2ccc(F)cc2)C(=O)C1C(c1cccc(O)c1)c1c(C)[nH]n(-c2ccc(F)cc2)c1=O (stereo not drawn) | inactive: -14.4% | 
6 | Cc1ccc(NC(=O)CN(C)C(=O)c2cccc(-n3cccc3)c2)cc1 |  | active: 2.15 µM
7 | Cc1ccc(-c2nc(SCc3ccc(Br)cc3)n3[nH]c(=O)cc3n2)cc1 |  | active: 4.82 µM
8 | COc1cc2nc(NCCCN3CCN(C)CC3)n3nc(-c4ccccc4)nc3c2cc1OC | inactive: -5.5% | 
9 | COC(=O)c1sc(NC(=O)c2ccc(Cn3cc(Cl)cn3)o2)c(C#N)c1C |  | inconclusive: 21.5 µM [inhibitor, partial curve]
10 | CCCN(CCC)CCCNC(=O)c1cc2c(-c3ccc(OC)c(OC)c3)nn(C)c2s1 |  | inconclusive: 4.82 µM [inhibitor, full curve]
11 | COc1cc(/C=C2\SC(=Nc3cccnc3)NC2=O)cc(OC)c1OC | inactive: -15.7% | 
12 | O=C(/C=C/c1ccco1)NC(=S)Nc1cccc(C(=O)O)c1 |  | inconclusive: 21.5 µM [inhibitor, partial curve, poor fit]
13 | CCOc1ncccc1C(=O)NNC(=O)c1cccc(S(=O)(=O)Nc2ccc(OC)cc2)c1 | inactive: -14.1% | 
14 | COc1ccc(-n2c(O)c(/C=N/NS(=O)(=O)c3ccc(C)cc3)c3ccccc3c2=O)cc1OC |  | inconclusive: 27.1 µM [inhibitor, partial curve]
15 | CN(C)CCC(=O)C(Cc1ccccc1)c1ccccc1 (stereo not drawn) | inactive: -18.2% | 
16 | CC1(C)CC(=O)C(C(C2=C(O)CC(C)(C)CC2=O)c2cccs2)C(=O)C1 (stereo not drawn) | inactive: -5.51% | 
17 | O=C(Nc1cccc(-c2cnc3ccccc3n2)c1)c1cccc(NC(=O)c2ccco2)c1 |  | inconclusive: 27.1 µM [inhibitor, partial curve]
18 | Cc1ccc(-c2[nH]c(-c3ccc(C(=O)O)cc3)nc2-c2ccccc2)cc1 |  | inconclusive: 27.1 µM [inhibitor, partial curve]
19 | COc1ccc(CN2CC(=O)N(c3ccc(C)c(C)c3)C2=S)cc1OC | inactive: -3.62% | 
20 | CCN(CC)c1ccc(/C=C2\C(=O)c3ccc(C(=O)O)cc3C2=O)cc1 |  | inconclusive: 24.1 µM [inhibitor, partial curve]
21 | CCc1[nH]c(=O)[nH]c1C(C)S(=O)(=O)c1ccc(C)cc1 (stereo not drawn) |  | inconclusive: 15.2 µM [inhibitor, partial curve]
22 | O=C1NN(c2ccc(Cl)c(Cl)c2)C(=O)/C1=C/c1ccc(-c2ccccc2C(=O)O)o1 | inactive: -23.1% | 

Two entries picked at random from those above, as already listed:
Row | SMILES | activity change, negative = inhibition | Potency
5 | CC1=NN(c2ccc(F)cc2)C(=O)C1C(c1cccc(O)c1)c1c(C)[nH]n(-c2ccc(F)cc2)c1=O (stereo not drawn) | inactive: -14.4% | 
21 | CCc1[nH]c(=O)[nH]c1C(C)S(=O)(=O)c1ccc(C)cc1 (stereo not drawn) |  | inconclusive: 15.2 µM [inhibitor, partial curve]

Test system: not listed separately
Assay: qHTS Assay for Identifying Gametocytocidal Compounds (AID 743244);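 as to max response: % is scaled to controls: 0 for no effect and ±100 for the full control effect; actives lower the fluorescent signal which means gametocytes are killed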
Settings: P. falciparum 3D7 stage III-V gametocytes, alamarBlue, 72 h; max response: hits give low values
Summary of the method: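 P. falciparum 3D7 stage III–V gametocytes (20,000 cells/well) were exposed to compounds for 72 h at 37 °C, 5% CO2. AlamarBlue was then added for 24 h; decreased resorufin fluorescence (Ex 525/Em 598 nm) indicated loss of viability.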

Row | SMILES | max response | Potency
23 | C[C@H]1C[C@H]2[C@@H]3CCC4=CC(=O)C=C[C@]4(C)[C@@]3(F)[C@@H](O)C[C@]2(C)[C@@]1(O)C(=O)CCl | inconclusive: -35.9% [inhibitor] | 
24 | CNC(C)CCC=C(C)C (stereo not drawn) |  | inconclusive: 2.24 µM [inhibitor, full curve]
25 | CC[C@]1(O)CC2CN(CCc3c([nH]c4ccccc34)[C@@](C(=O)OC)(c3cc4c(cc3OC)N(C)[C@H]3[C@@](O)(C(N)=O)[C@H](O)[C@]5(CC)C=CCN6CC[C@]43[C@@H]65)C2)C1 (stereo partly drawn) | inactive: -7.92% | 
26 | CCCC(=O)Nc1c(I)cc(I)c(CC(CC)C(=O)O)c1I (stereo not drawn) | inactive: 15% | 
27 | CC1(C)[C@@H]2CC[C@@]1(C)[C@H](OC(=O)CSC#N)C2 | inactive: -3.31% | 
28 | O[C@H](c1cc(C(F)(F)F)nc2c(C(F)(F)F)cccc12)[C@H]1CCCCN1 |  | active: 0.0894 µM
